Assay results as given in paper doi:10.1101/2021.06.16.448340 (bioRxiv, 2021).
These are yes or no findings as the source states them, for the method shown. Some entries that bind do so weakly or less than the wild type.

Assays:
[1] = molecular target: T1, QcrA, Rieske iron-sulfur (FeS) protein subunit of complex III (Corynebacterium glutamicum) (UniProt Q79VE8); assay: cryo-EM structure
T1 sequence: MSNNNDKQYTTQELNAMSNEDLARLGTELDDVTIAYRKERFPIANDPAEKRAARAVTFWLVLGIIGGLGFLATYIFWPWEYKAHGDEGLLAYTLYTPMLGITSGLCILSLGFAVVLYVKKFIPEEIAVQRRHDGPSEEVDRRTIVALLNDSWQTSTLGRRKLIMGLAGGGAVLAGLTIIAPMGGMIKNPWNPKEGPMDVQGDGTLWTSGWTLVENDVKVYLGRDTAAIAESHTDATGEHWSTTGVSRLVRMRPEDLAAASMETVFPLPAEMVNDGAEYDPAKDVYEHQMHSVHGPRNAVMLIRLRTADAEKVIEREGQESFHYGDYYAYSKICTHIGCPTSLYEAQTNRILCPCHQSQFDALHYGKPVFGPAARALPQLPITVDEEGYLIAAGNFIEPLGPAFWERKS

[2] = molecular target: T2, QcrB, cytochrome b subunit of complex III (Corynebacterium glutamicum) (UniProt Q79VE9); assay: cryo-EM structure
T2 sequence: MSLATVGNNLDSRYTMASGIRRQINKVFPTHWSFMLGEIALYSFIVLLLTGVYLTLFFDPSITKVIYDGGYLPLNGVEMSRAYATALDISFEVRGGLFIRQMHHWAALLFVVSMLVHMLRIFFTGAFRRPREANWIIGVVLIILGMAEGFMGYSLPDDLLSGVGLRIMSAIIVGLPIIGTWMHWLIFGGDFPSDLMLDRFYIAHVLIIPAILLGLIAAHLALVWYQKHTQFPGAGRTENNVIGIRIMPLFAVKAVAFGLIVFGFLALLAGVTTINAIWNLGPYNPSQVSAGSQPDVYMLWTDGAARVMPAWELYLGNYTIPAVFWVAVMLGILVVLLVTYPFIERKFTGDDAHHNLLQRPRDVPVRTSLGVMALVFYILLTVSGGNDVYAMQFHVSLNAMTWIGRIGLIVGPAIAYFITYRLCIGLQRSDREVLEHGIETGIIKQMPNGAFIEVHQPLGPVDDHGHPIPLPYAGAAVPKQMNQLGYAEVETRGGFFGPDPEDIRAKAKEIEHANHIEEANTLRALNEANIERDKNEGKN

B1: QcrC, di-heme cyt. cc subunit of complex III (protein, UniProt Q8NNK5 1-283)
chain: MAKPSAKKVKNRRKVRRTVAGALALTIGLSGAGILATAITPDAQVATAQRDDQALISEGKDLYDVACITCHGVNLQGVEDRGPSLVGVGEGAVYFQVHSGRMPILRNEAQAERKAPRYTEAQTLAIAAYVAANGGGPGLVYNEDGTLAMEELRGENYDGQITSADVARGGDLFRLNCASCHNFTGRGGALSSGKYAPNLDAANEQEIYQAMLTGPQNMPKFSDRQLSADEKKDIIAFIKSTKETPSPGGYSLGSLGPVAEGLFMWVFGILVLVAAAMWIGSRS
Q: Which binding [1] does the source give for B1 here?
A: The binding was “binds”.

Q: And the binding [2]?
A: Its binding is “binds”.
